# Source: PubChem BioAssay AID1259405 (NCATS, 2018)
# Aim: 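Mouse-designed siRNAs used to find CHO productivity engineering targets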 (primary screen)
# Cells: Chinese hamster CHO-K1 ovary cells with stable secreted eGFP expression
# Reagent: single siRNA against mouse genes, 0.8 pmol siRNA per well (2 µl of 400 nM stock)
# Timing: 3 days
# Measurement: 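Percent of the per-plate non-targeting control median for intracellular GFP per well by laser scanning cytometry and for cell viability by ATP luminescence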
# Scale: GFP, % of control: higher = more GFP per well, higher productivity; viability (ATP), % of control: higher = more viable cells (more ATP)
# Call rule: 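Called active when intracellular GFP, relative to negative control, is at or above 120%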
# This is an unselected part of about 50,000 reagents. Of all reagents, about 4,000 (8%) got an active call. 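Mouse siRNA library applied to hamster cells; one well for each siRNA.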 Entries without a mark were called inactive. Reagents against one gene are numbered here.
gene symbol,reagent no.,"GFP, % of control","viability (ATP), % of control"
Aym1,1,133 (active),83.2
Aym1,2,69.8,71.6
Aym1,3,75.1,82.2
Trp53bp1,1,44.7,47.9
Trp53bp1,2,48.8,49.3
Trp53bp1,3,34.9,49.2
Dmwd,1,75.1,83.2
Dmwd,2,63.3,74.7
Dmwd,3,77.8,79.7
Pi16,1,82.2,63.5
Pi16,2,116,45.6
Pi16,3,84,91
Lin52,1,81.7,76.2
Lin52,2,79.8,96.1
Lin52,3,79.7,139
Inhba,1,93.4,92.9
Inhba,2,63.9,78.6
Inhba,3,120 (active),125
Wdr83,1,63.1,58.2
Wdr83,2,91.7,76.7
Wdr83,3,71,67.3
Scamp4,1,114,84.2
Scamp4,2,66.6,89
Scamp4,3,59.2,69.5
Zfp446,1,34.7,31
Zfp446,2,95.7,87.3
Carhsp1,1,95.7,91.6
Carhsp1,2,41.3,74.6
Carhsp1,3,38.9,53.6
Nudt15,1,144 (active),79
Nudt15,2,89.9,87.6
Nudt15,3,68.1,73.7
Pip5k1b,1,70.3,62.3
Pip5k1b,2,59.8,56.9
Pip5k1b,3,80.9,96.9
Brix1,1,74.7,45.8
Brix1,2,62.9,50
Brix1,3,88.6,64.7
Tmem198,1,80.1,70.8
Tmem198,2,113,78.5
Tmem198,3,75.7,74.5
Or52z1,1,82.6,91
Or52z1,2,37.2,67.2
Or52z1,3,56.7,119
Rftn1,1,51.1,49.4
Rftn1,2,29.8,26.1
Rftn1,3,90.7,91.3
Sntb1,1,49.7,87.9
Sntb1,2,107,70.2
Coq7,1,45.3,41.4
Coq7,2,102,97.1
Coq7,3,52,68
Pxylp1,1,50.3,68.8
Pxylp1,2,57.2,57.8
Pxylp1,3,86.2,102
Hjv,1,87.5,83.4
Hjv,2,45,59.4
Hjv,3,95.2,92.5
Agk,1,122 (active),102
Ovol1,1,86.6,105
Ovol1,2,63.4,78.8
Ovol1,3,39,46.3
Tomm6,1,116,80.8
Tomm6,2,150 (active),98.3
Tomm6,3,76.2,80.2
Dmtf1l,1,52.9,39.5
Dmtf1l,2,48.2,41
Dmtf1l,3,77.6,82.4
Mllt1,1,129 (active),78.9
Mllt1,2,106,69.9
Mllt1,3,154 (active),121
Tnnt2,1,67.5,61.5
Tnnt2,2,45.7,42.8
Tnnt2,3,36.1,47.9
Taar7e,1,62.7,56.4
Taar7e,2,68,70.4
Taar7e,3,60.8,71.5
H2ac4,1,61,67.6
H2ac4,2,59.9,99.1
H2ac4,3,67.6,52.4
Taf6,1,36.1,32.9
Taf6,2,72.3,70.4
Taf6,3,65,87.4
Mical2,1,62.8,86
Mical2,2,69.9,85.8
Mical2,3,72.6,77.1
Pex2,1,116,65.9
Pex2,2,45,64.5
Pex2,3,79,93.5
Ltbp3,1,175 (active),113
Ltbp3,2,50.8,75.9
Dpy19l3,1,74.9,52.7
Dpy19l3,2,58.9,56
Dpy19l3,3,62.4,78.2
Fam161b,1,93.8,50.9
Fam161b,2,83,83.3
Fam161b,3,71.8,56.1
Fam120c,1,69.4,58.4
Fam120c,2,50.1,71.6
Fam120c,3,103,103
Ppm1f,1,87.1,75.6
Ppm1f,2,78.6,80.2
Ppm1f,3,99.1,80.5
Wbp11,1,55.1,43.9
Wbp11,2,72.6,73
Wbp11,3,82.9,77.4
Ehmt1,1,94,69
Ehmt1,2,88.1,97.2
Ehmt1,3,40.8,66.6
